The values that follow come from PMC7517941.

For the assay, the target named is GIP1 (Arabidopsis thaliana) (UniProt Q9M0N8). As to the kind of experiment: two-hybrid; β-galactosidase filter assay; Y187 cells co-transformed with pGAD10-GIP1 and pGBKT7-GIP1.

No constants are given. Whether binding was seen depends on the method and setting. Some results given as binding are weak or reduced against the parent protein; the word gives no strength.

B1: GIP1 (protein, UniProt Q9M0N8 1-71)
chain: MDEEASRTARESLELVFRMSNILDTGLDRHTLSVLIALCDLGVNPEALATVVKELRRESIPDSVTTTPSIH
Turning to B1, the binding result was “binds”.
